# Assay results from the supplement of paper PMC12067093, “Discovery and optimisation of a covalent ligand for TRIM25 and its application to targeted protein ubiquitination” (Chemical Science, 2025).
# Amino acid sequences for entries named in this document (tags omitted). A change or cut given only in a name is not applied to a line headed by its entry.
# UniProt O43264: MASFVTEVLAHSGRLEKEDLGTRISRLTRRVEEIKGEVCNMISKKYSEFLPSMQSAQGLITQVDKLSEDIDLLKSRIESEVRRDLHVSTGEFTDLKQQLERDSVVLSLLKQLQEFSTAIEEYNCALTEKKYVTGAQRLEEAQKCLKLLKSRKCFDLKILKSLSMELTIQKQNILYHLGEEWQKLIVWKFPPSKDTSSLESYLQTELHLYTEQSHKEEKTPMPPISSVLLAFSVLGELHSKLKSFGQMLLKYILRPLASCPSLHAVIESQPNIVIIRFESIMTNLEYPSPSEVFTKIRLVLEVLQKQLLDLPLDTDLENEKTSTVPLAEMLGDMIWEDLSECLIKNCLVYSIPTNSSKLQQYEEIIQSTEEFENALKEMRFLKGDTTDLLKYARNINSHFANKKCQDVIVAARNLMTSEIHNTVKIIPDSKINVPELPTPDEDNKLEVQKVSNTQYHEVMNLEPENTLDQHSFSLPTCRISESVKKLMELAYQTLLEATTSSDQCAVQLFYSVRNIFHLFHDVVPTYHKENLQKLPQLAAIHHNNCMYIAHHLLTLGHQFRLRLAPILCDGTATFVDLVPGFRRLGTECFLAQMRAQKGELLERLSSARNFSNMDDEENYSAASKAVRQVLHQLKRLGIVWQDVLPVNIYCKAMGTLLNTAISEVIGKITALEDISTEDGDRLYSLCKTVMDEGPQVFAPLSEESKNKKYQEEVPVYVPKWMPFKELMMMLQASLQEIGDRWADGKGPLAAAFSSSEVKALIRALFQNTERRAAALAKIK
# UniProt Q15649: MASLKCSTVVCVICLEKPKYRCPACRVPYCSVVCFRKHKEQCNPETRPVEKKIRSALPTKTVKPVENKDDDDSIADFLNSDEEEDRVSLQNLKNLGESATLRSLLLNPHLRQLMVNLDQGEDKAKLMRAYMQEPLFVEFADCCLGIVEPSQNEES
# UniProt Q9P1U0, whole entry, looked up: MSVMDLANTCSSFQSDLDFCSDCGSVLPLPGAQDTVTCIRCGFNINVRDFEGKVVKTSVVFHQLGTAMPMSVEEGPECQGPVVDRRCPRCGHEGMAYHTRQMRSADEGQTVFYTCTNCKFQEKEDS
# UniProt Q6DD87: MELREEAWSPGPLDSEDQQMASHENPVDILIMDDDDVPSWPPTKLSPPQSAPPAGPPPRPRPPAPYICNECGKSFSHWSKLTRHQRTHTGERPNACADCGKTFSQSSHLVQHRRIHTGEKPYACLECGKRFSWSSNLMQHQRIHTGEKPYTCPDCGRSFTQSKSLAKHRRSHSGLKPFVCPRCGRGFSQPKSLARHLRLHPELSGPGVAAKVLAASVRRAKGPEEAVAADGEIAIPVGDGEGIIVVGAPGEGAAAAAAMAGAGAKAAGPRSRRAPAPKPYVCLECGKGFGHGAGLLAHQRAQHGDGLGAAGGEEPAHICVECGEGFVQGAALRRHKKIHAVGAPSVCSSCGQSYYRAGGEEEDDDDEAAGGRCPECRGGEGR
# UniProt Q15942: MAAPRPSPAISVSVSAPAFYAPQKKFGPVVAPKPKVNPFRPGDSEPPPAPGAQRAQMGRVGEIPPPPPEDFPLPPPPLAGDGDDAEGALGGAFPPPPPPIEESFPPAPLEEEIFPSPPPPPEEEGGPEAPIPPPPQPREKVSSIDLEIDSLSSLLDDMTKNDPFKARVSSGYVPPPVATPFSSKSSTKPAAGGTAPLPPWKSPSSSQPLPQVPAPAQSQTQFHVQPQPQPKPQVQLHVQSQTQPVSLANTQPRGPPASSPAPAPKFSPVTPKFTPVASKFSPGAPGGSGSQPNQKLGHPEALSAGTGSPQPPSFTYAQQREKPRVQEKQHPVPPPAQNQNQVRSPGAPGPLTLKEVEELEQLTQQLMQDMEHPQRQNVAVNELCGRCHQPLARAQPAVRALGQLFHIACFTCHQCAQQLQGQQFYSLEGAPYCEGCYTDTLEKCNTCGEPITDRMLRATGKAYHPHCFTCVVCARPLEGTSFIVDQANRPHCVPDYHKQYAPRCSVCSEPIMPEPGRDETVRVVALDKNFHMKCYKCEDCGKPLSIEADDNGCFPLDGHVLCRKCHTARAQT
# UniProt O43149: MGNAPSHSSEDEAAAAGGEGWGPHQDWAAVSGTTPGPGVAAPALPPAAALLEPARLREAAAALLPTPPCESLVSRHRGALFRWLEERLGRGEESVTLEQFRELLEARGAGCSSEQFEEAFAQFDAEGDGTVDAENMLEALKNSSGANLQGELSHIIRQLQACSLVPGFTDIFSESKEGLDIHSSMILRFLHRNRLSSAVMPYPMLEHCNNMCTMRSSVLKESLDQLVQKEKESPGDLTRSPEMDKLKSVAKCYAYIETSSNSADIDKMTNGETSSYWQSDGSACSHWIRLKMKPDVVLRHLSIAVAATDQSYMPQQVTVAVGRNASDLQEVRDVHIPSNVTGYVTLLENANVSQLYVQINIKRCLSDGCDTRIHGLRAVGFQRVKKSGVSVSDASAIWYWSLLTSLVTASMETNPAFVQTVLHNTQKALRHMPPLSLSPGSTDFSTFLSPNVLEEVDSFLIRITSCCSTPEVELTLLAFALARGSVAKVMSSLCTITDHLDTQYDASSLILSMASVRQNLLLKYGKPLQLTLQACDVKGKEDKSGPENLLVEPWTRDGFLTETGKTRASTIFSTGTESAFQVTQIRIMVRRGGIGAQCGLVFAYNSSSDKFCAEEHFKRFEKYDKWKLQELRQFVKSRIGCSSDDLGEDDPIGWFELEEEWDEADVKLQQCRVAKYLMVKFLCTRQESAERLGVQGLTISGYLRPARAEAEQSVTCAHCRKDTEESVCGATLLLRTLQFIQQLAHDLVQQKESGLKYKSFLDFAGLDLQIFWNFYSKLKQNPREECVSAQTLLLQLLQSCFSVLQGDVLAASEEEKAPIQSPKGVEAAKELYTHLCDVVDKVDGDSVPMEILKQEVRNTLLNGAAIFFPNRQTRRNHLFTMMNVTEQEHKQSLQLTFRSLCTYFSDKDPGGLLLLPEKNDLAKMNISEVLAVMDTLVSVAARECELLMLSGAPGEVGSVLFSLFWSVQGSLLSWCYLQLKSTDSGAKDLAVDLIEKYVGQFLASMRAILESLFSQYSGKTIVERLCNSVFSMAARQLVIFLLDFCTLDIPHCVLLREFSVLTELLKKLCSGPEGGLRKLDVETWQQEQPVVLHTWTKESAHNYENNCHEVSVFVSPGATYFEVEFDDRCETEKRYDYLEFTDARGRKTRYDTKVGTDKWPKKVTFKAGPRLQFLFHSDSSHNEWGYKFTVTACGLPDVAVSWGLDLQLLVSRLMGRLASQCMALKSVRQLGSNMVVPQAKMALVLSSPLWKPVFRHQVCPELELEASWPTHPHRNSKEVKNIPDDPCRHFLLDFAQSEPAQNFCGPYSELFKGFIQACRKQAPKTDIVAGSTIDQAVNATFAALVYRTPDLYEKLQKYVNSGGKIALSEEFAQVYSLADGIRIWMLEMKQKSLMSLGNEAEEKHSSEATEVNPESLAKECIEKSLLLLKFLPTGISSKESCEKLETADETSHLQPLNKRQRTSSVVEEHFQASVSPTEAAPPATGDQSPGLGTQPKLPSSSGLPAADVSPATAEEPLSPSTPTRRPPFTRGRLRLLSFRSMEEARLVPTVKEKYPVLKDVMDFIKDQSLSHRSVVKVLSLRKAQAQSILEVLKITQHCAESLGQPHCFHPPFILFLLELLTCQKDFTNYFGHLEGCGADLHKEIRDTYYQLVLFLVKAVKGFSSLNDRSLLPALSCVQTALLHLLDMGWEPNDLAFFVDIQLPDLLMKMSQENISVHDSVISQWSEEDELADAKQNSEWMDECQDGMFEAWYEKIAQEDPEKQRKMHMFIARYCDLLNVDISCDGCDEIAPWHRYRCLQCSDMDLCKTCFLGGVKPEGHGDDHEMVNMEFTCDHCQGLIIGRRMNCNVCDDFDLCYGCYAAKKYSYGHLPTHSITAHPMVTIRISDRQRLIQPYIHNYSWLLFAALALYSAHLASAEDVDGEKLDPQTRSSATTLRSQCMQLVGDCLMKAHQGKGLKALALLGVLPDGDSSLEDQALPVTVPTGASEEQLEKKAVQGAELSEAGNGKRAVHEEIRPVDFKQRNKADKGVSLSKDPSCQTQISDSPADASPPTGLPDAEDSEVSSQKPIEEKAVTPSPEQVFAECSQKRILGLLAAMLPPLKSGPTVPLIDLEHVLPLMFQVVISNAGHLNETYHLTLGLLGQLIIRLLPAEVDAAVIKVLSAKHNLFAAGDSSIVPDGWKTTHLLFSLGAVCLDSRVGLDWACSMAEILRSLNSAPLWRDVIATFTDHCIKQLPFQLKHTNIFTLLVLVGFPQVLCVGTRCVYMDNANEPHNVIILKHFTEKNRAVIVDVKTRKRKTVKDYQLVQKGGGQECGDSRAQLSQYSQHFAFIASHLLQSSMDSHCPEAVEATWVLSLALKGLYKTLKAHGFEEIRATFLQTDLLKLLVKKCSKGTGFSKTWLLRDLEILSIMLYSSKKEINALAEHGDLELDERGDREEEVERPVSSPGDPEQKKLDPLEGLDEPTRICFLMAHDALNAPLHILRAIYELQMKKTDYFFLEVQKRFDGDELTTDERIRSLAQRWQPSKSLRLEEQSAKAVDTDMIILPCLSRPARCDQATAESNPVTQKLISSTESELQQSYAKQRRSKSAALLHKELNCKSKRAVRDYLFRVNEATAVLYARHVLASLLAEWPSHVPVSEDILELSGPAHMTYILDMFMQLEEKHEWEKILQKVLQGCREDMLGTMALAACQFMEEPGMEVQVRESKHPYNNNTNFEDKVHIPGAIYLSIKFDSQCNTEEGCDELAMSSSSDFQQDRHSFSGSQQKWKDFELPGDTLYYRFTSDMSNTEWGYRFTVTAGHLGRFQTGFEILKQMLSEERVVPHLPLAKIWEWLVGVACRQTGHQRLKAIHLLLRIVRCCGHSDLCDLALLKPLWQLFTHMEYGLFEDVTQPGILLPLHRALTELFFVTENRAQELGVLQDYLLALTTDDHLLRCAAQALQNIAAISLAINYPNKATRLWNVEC
# UniProt O95218: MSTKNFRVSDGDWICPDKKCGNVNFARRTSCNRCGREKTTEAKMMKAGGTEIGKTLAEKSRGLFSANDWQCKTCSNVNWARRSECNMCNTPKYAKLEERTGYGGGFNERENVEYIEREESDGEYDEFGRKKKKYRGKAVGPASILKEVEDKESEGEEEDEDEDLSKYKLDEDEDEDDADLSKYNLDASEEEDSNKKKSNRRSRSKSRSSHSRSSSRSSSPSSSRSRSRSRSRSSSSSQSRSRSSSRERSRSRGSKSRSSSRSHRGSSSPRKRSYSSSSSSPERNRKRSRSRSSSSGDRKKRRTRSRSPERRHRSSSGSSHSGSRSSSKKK
# UniProt Q2TB10: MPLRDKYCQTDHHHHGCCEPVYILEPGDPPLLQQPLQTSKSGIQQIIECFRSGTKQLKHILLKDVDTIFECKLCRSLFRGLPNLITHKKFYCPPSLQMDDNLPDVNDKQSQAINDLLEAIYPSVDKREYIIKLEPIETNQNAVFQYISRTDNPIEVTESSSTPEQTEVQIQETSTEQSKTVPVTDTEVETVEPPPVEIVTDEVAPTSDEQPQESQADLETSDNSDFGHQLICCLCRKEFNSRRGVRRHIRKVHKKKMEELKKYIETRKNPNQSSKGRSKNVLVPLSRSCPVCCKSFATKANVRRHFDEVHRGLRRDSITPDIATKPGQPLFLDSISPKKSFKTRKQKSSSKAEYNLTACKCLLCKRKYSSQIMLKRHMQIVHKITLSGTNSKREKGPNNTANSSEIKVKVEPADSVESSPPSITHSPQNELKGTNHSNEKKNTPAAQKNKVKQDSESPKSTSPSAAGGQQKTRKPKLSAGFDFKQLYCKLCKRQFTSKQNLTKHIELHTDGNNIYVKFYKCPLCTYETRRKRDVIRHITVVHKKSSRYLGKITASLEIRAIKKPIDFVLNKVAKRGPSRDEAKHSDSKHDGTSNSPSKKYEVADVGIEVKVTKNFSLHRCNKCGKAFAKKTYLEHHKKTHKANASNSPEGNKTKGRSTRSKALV
# UniProt O75312: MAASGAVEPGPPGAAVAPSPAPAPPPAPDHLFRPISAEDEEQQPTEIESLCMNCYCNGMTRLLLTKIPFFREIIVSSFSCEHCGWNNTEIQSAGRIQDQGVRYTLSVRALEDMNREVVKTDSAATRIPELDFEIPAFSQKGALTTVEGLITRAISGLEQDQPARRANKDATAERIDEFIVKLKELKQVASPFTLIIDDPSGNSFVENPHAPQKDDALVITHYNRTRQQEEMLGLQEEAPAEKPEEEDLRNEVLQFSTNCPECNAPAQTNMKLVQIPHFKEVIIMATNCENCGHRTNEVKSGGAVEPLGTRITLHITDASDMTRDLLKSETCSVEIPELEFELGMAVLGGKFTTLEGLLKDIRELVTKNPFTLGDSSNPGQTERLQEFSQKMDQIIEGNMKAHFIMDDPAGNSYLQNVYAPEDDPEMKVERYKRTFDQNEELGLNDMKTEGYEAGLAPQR
# This is one part of the list.
# What was measured:
# [1] = compound: Cc1cc(ccc1-c1ccccc1)C(=O)N1CCCN(CC1)C(=O)CCl [compound 10]; experiment: probe-labelled cysteine peptide fold change vs DMSO (competition) (log2 fold change); higher = less target engagement (more negative = stronger competition); conditions: THP-1, incubation time: 4 h
# [2] = compound: CC1Cc2ccccc2N1C(=O)C1CCCN(C1)C(=O)CCl (mixture of isomers) [TRIM25 ligand 11 (diastereomer mixture)]; experiment: as above; conditions: THP-1, incubation time: 4 h
Target,probe-labelled cysteine peptide fold change ([1]; 10 µM),probe-labelled cysteine peptide fold change ([1]; 50 µM),probe-labelled cysteine peptide fold change ([2]; 10 µM),probe-labelled cysteine peptide fold change ([2]; 50 µM)
ZNFX1_Q9P2E3_1860_NGHIYVIGDCGGAMER (UniProt Q9P2E3),0.0615,0.0398,,
ZW10_O43264_650_LGIVWQDVLPVNIYCK (UniProt O43264),0.139,0.206,,
ZNHIT3_Q15649_30_VPYCSVVCFR (UniProt Q15649),-0.0726,-1.11,,
ZNRD1_Q9P1U0_115+118_SADEGQTVFYTCTNCK (UniProt Q9P1U0),-0.172,-0.15,,
ZNF787_Q6DD87_180_SHSGLKPFVCPR (UniProt Q6DD87),-0.0348,0.176,,
ZYX_Q15942_507_CSVCSEPIMPEPGRDETVR (UniProt Q15942),0.027,-0.205,,
ZZEF1_O43149_1259_HQVCPELELEASWPTHPHR (UniProt O43149),-0.201,-0.0771,,
ZUP1_Q96AP4_478_VVCTSKPPIYLQHQGHSR (UniProt Q96AP4),0.0441,-0.0216,,
ZYX_Q15942_537+540+553+562_CEDCGKPLSIEADDNGCFPLDGHVLCR (UniProt Q15942),-0.214,-0.795,,
ZNHIT3_Q15649_42_EQCNPETRPVEK (UniProt Q15649),-0.0866,-0.343,,
ZRANB2_O95218_85_RSECNMCNTPK (UniProt O95218),0.0474,-0.361,,
ZRANB2_O95218_31_RTSCNR (UniProt O95218),0.0472,-0.373,,
ZNFX1_Q9P2E3_1292_VPEGGCSLPCEFR (UniProt Q9P2E3),-0.288,-0.526,,
ZNFX1_Q9P2E3_1416_CGHVEGLLYGGLLVK (UniProt Q9P2E3),-0.13,-0.405,,
ZYX_Q15942_504_CSVCSEPIMPEPGR (UniProt Q15942),-0.07,-0.161,,
ZNF800_Q2TB10_49_SGIQQIIECFR (UniProt Q2TB10),-0.0885,0.0381,,
ZYX_Q15942_387_CHQPLAR (UniProt Q15942),-0.0859,-0.479,,
ZW10_O43264_588_LGTECFLAQMR (UniProt O43264),0.071,0.103,,
ZYX_Q15942_467+473_AYHPHCFTCVVCAR (UniProt Q15942),0.0235,0.145,,
ZPR1_O75312_288+291_EVIIMATNCENCGHR (UniProt O75312),-0.03,-0.565,,
ZNHIT6_Q9NWK9_181_EELMHGECVK (UniProt Q9NWK9),-0.57,0.129,,

Target,probe-labelled cysteine peptide fold change ([1]; 10 µM),probe-labelled cysteine peptide fold change ([1]; 50 µM),probe-labelled cysteine peptide fold change ([2]; 10 µM),probe-labelled cysteine peptide fold change ([2]; 50 µM)
ZYX_Q15942_540+553_CEDCGKPLSIEADDNGCFPLDGHVLCR (UniProt Q15942),0.0325,-0.585,,
ZSWIM8_A7E2V4_979_TTVSEAEHPLLCEGTR (UniProt A7E2V4),-0.0121,-0.0128,,
ZNF787_Q6DD87_350_IHAVGAPSVCSSCGQSYYR (UniProt Q6DD87),-0.238,-0.311,,
ZNF830_Q96NB3_314_QIGEIDEQIECYR (UniProt Q96NB3),-0.0668,-0.0552,,
ZNF8_P17098_450_HEWTEALGCDPPLSQDER (UniProt P17098),0.0836,0.0462,,
ZYG11B_Q9C0D3_207_LESLDISNTSITDITALLACK (UniProt Q9C0D3),0.312,-0.272,,
ZYX_Q15942_467+470_AYHPHCFTCVVCAR (UniProt Q15942),-0.0656,0.22,,
ZZEF1_O43149_2932_CAAQALQNIAAISLAINYPNK (UniProt O43149),0.0979,0.478,,
ZRANB2_O95218_20_KCGNVNFAR (UniProt O95218),-0.121,-0.457,,
ZW10_O43264_477_VSNTQYHEVMNLEPENTLDQHSFSLPTCR (UniProt O43264),0.072,-0.05,,
ZNFX1_Q9P2E3_1302_LGCGHVCTR (UniProt Q9P2E3),-0.0419,-0.239,,
ZRANB2_O95218_15_VSDGDWICPDKK (UniProt O95218),-0.0806,-0.144,,
ZZEF1_O43149_1287_NIPDDPCR (UniProt O43149),-0.0608,-0.0718,,
ZPR1_O75312_288_EVIIMATNCENCGHR (UniProt O75312),0.0539,0.038,,
ZYX_Q15942_553_PLSIEADDNGCFPLDGHVLCR (UniProt Q15942),0.0817,0.0809,,
ZNF787_Q6DD87_376_AGGEEEDDDDEAAGGRCPECR (UniProt Q6DD87),0.0638,-0.333,,
ABHD10_Q9NUJ1_229+239_EAEHHCLLHSPIPVNCPIR (UniProt Q9NUJ1),,,0.161,0.0305
ACOT11_Q8WXI4_498_RKPCDNGDPYVIALR (UniProt Q8WXI4),,,-0.07,-0.0208
ZYX_Q15942_562_PLSIEADDNGCFPLDGHVLCR (UniProt Q15942),0.0232,0.0852,,
ZNFX1_Q9P2E3_539_NIVECNSHVK (UniProt Q9P2E3),-0.309,-0.157,,

# For reference, some entries already given.
Target,probe-labelled cysteine peptide fold change ([1]; 10 µM),probe-labelled cysteine peptide fold change ([1]; 50 µM),probe-labelled cysteine peptide fold change ([2]; 10 µM),probe-labelled cysteine peptide fold change ([2]; 50 µM)
ZZEF1_O43149_2932_CAAQALQNIAAISLAINYPNK (UniProt O43149),0.0979,0.478,,
ZRANB2_O95218_20_KCGNVNFAR (UniProt O95218),-0.121,-0.457,,
ZW10_O43264_477_VSNTQYHEVMNLEPENTLDQHSFSLPTCR (UniProt O43264),0.072,-0.05,,
ZNFX1_Q9P2E3_1302_LGCGHVCTR (UniProt Q9P2E3),-0.0419,-0.239,,
